# The list is a part of this screen's results and no random one: it is rich in T/C values a quarter to a half above the control, in often repeated tests (any T/C) and in doses without a T/C. Other doses and runs of a compound stand elsewhere. T/C is the treated group as % of the vehicle group. Some doses have a count of surviving animals in place of a T/C: the source holds a T/C of zero for them, seemingly a mark for toxic or unscored doses. Some survivor counts are full or nearly so, which does not show that the dose was tolerated: the source hardly ever lists a survival T/C far under the control, and the zero likely stands for such cases as well. Survivors were counted at the toxicity check, usually on the fifth day, unless a day is given; later deaths do not show. Schedules are NCI's codes, read here as Q, the interval in days (D) or hours (H), X, the number of doses. Some doses were run more than once; their values stand side by side, smallest first. Where survival is the endpoint, this PubChem deposit counts one and a half times the control or more as active, and values a quarter to a half above the control carry no call in these data; other NCI protocols may use other cut-offs. Brackets with × say how often a value occurs here. Some T/C values carry the count of animals alive at the toxicity check (mostly the fifth day); without a count, all were alive then.
# System: CD2F1 mice, L1210 leukemia ip, survival T/C
# Assay: NCI In Vivo Anticancer Drug Screen. Data for tumor model L1210 Leukemia (intraperitoneal) in CD2F1 (CDF1) mice
# Conditions: higher T/C = longer survival
# Outline: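 Ratio T/C, where T is the treated-group value and C the vehicle-dosed control value, from mice implanted with a transplantable tumor.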
# [1] = T/C endpoint: mean survival time, dose: 400.0 mg/kg/injection, schedule: Q04DX003 (ip), vehicle: saline with Tween-80
# [2] = T/C endpoint: mean survival time, dose: 400.0 mg/kg/injection, schedule: Q01DX009 (ip), vehicle: other
# [3] = T/C endpoint: mean survival time, dose: 400.0 mg/kg/injection, schedule: Q04DX003 (ip), vehicle: saline
# [4] = T/C endpoint: mean survival time, dose: 100.0 mg/kg/injection, schedule: Q01DX009 (ip), vehicle: other
smiles,measurement,setting,value
CC(CN1CC(=O)NC(=O)C1)N1CC(=O)NC(=O)C1 (stereo not drawn),T/C,"T/C endpoint: mean survival time, dose: 16.0 mg/kg/injection, schedule: Q01DX009 (ip), vehicle: saline",136 % of control
same,T/C,"T/C endpoint: mean survival time, dose: 50.0 mg/kg/injection, schedule: Q04DX003 (ip), vehicle: saline with Tween-80","110 (2×), 111, 112, 113 (2×), 124, 128 % of control"
same,T/C,"T/C endpoint: mean survival time, dose: 64.0 mg/kg/injection, schedule: Q04DX003 (ip), vehicle: saline",131 % of control
same,T/C,"T/C endpoint: mean survival time, dose: 100.0 mg/kg/injection, schedule: Q01DX001 (ip), vehicle: saline, evaluated on day 5",99 and 120 % of control
same,T/C,"T/C endpoint: mean survival time, dose: 100.0 mg/kg/injection, schedule: Q01DX001 (ip), vehicle: saline, evaluated on day 30",120 % of control
same,T/C,"T/C endpoint: mean survival time, dose: 100.0 mg/kg/injection, schedule: Q01DX001 (ip), vehicle: saline, evaluated on day 60",99 % of control
same,T/C,"T/C endpoint: mean survival time, dose: 100.0 mg/kg/injection, schedule: Q04DX003 (ip), vehicle: saline with Tween-80","108, 110, 117, 120, 130, 131, 148, 151 % of control"
same,T/C,"T/C endpoint: mean survival time, dose: 128.0 mg/kg/injection, schedule: Q04DX003 (ip), vehicle: saline",147 % of control
same,T/C,"T/C endpoint: mean survival time, dose: 200.0 mg/kg/injection, schedule: Q01DX001 (ip), vehicle: saline, evaluated on day 5",130 and 133 % of control
same,T/C,"T/C endpoint: mean survival time, dose: 200.0 mg/kg/injection, schedule: Q01DX001 (ip), vehicle: saline, evaluated on day 30",130 % of control
same,T/C,"T/C endpoint: mean survival time, dose: 200.0 mg/kg/injection, schedule: Q01DX001 (ip), vehicle: saline, evaluated on day 60",133 % of control
same,T/C,"T/C endpoint: mean survival time, dose: 200.0 mg/kg/injection, schedule: Q04DX003 (ip), vehicle: saline with Tween-80","107, 129, 148, 177, 183, 193, 203, 209 % of control"
same,survivor count,"T/C endpoint: mean survival time, dose: 256.0 mg/kg/injection, schedule: Q01DX009 (ip), vehicle: saline",10 of 10
same,T/C,"T/C endpoint: mean survival time, dose: 400.0 mg/kg/injection, schedule: Q01DX001 (ip), vehicle: saline, evaluated on day 5",145 and 156 % of control
same,T/C,"T/C endpoint: mean survival time, dose: 400.0 mg/kg/injection, schedule: Q01DX001 (ip), vehicle: saline, evaluated on day 30",156 % of control
same,T/C,"T/C endpoint: mean survival time, dose: 400.0 mg/kg/injection, schedule: Q01DX001 (ip), vehicle: saline, evaluated on day 60",145 % of control
same,T/C,[1],"90, 120, 134, 143, 201, 214, 222, 253 % of control"
same,survivor count,"T/C endpoint: mean survival time, dose: 1024.0 mg/kg/injection, schedule: Q04DX003 (ip), vehicle: saline",6 of 10
same,T/C,"T/C endpoint: median survival time, dose: 108.0 mg/kg/injection, schedule: Q04DX003 (ip), vehicle: Klucel (hydroxypropylcellulose) (HPC), evaluated on day 5",147 % of control
same,T/C,"T/C endpoint: median survival time, dose: 108.0 mg/kg/injection, schedule: Q04DX003 (ip), vehicle: Klucel (hydroxypropylcellulose) (HPC), evaluated on day 61",147 % of control
CCC1(O)C(=O)OCc2c1cc1n(c2=O)Cc2cc3cc4c(cc3nc2-1)OCO4 (stereo not drawn),survivor count,"T/C endpoint: median survival time, dose: 8.0 mg/kg/injection, schedule: Q01DX005 (ip), vehicle: saline with Tween-80",6 of 6
same,survivor count,"T/C endpoint: median survival time, dose: 16.0 mg/kg/injection, schedule: Q01DX005 (ip), vehicle: saline with Tween-80",6 of 6
same,survivor count,"T/C endpoint: median survival time, dose: 32.0 mg/kg/injection, schedule: Q04DX002 (ip), vehicle: saline with Tween-80",5 of 6
N#CC(c1cccnc1)N1CCOCC1 (stereo not drawn),survivor count,"T/C endpoint: mean survival time, dose: 100.0 mg/kg/injection, schedule: Q01DX009 (ip), vehicle: saline with Tween-80",1 of 3
same,survivor count,"T/C endpoint: mean survival time, dose: 100.0 mg/kg/injection, schedule: Q04DX002 (ip), vehicle: saline with Tween-80",3 of 3
same,survivor count,"T/C endpoint: mean survival time, dose: 200.0 mg/kg/injection, schedule: Q04DX002 (ip), vehicle: saline with Tween-80",0 of 3
same,survivor count,"T/C endpoint: mean survival time, dose: 400.0 mg/kg/injection, schedule: Q04DX002 (ip), vehicle: saline with Tween-80",0 of 3
OCC1OC(n2ncc3cncnc32)C(O)C1O (stereo not drawn),survivor count,[2],3 of 3
COC(=O)CSC#N,survivor count,"T/C endpoint: mean survival time, dose: 40.0 mg/kg/injection, schedule: Q01DX001 (ip), vehicle: saline",2 of 6
[N-]=[N+]=NCc1cn(C2CC(O)C(CO)O2)c(=O)[nH]c1=O (stereo not drawn),survivor count,"T/C endpoint: mean survival time, dose: 100.0 mg/kg/injection, schedule: Q01DX005 (ip), vehicle: water",1 of 3
CC(CC(C)C(=O)O)C(=O)O (stereo not drawn),survivor count,"T/C endpoint: mean survival time, dose: 400.0 mg/kg/injection, schedule: Q01DX009 (ip), vehicle: saline with Tween-80",4 of 6
Oc1ccc(/C=N/N=C/c2ccc(O)c(O)c2)cc1O,survivor count,"T/C endpoint: median survival time, dose: 200.0 mg/kg/injection, schedule: Q01DX009 (ip), vehicle: saline with Tween-80",4 of 6
same,survivor count,"T/C endpoint: median survival time, dose: 400.0 mg/kg/injection, schedule: Q01DX009 (ip), vehicle: saline with Tween-80",0 of 6
C=C(C)C1C2CC3(C)C4(CO4)C4OC4C3(O)C1C(=O)O2 (stereo not drawn),survivor count,"T/C endpoint: median survival time, dose: 4.0 mg/kg/injection, schedule: Q01DX009 (ip), vehicle: Klucel (hydroxypropylcellulose) (HPC)",0 of 6
Cc1cc(-c2ccc(N=Nc3c(N)ccc4cc(S(=O)(=O)O)ccc34)c(C)c2)ccc1N=Nc1c(N)ccc2cc(S(=O)(=O)O)ccc12,survivor count,"T/C endpoint: mean survival time, dose: 200.0 mg/kg/injection, schedule: Q01DX009 (ip), vehicle: saline",2 of 3
Cc1ccc(C#CP(C#Cc2ccc(C)cc2)C#Cc2ccc(C)cc2)cc1,survivor count,"T/C endpoint: mean survival time, dose: 6.25 mg/kg/injection, schedule: Q01DX009 (ip), vehicle: saline with Tween-80",3 of 3
same,survivor count,"T/C endpoint: mean survival time, dose: 12.5 mg/kg/injection, schedule: Q01DX009 (ip), vehicle: saline",3 of 3
CC([NH-])CC[NH-].[Cl][Pt+2][Cl] (stereo not drawn),T/C,"T/C endpoint: mean survival time, dose: 3.12 mg/kg/injection, schedule: Q04DX003 (ip), vehicle: saline with Tween-80",132 % of control
same,T/C,"T/C endpoint: mean survival time, dose: 12.5 mg/kg/injection, schedule: Q04DX003 (ip), vehicle: saline with Tween-80",133 % of control
COc1cc2c(ccc3c4cc(OC)c(OC)cc4c[n+](C)c23)cc1O,T/C,"T/C endpoint: mean survival time, dose: 20.0 mg/kg/injection, schedule: Q01DX009 (ip), vehicle: saline with Tween-80",144 % of control
same,T/C,"T/C endpoint: mean survival time, dose: 20.0 mg/kg/injection, schedule: Q01DX009 (ip), vehicle: saline",146 % of control
same,T/C,"T/C endpoint: mean survival time, dose: 40.0 mg/kg/injection, schedule: Q01DX009 (ip), vehicle: saline with Tween-80",134 % of control
same,T/C,"T/C endpoint: mean survival time, dose: 40.0 mg/kg/injection, schedule: Q01DX009 (ip), vehicle: saline",144 % of control
same,T/C,"T/C endpoint: mean survival time, dose: 80.0 mg/kg/injection, schedule: Q01DX009 (ip), vehicle: saline with Tween-80",134 % of control
Cc1cc2nc(CN)[nH]c2cc1C,survivor count,[3],2 of 6
Clc1nc2ccccc2c2ccccc12,survivor count,[1],3 of 6
Oc1ccccc1Br,survivor count,"T/C endpoint: mean survival time, dose: 400.0 mg/kg/injection, schedule: Q01DX001 (ip), vehicle: saline",0 of 3
CCOC(=O)C(=C=[N-])[n+]1ccc(C)cc1,survivor count,"T/C endpoint: mean survival time, dose: 100.0 mg/kg/injection, schedule: Q01DX001 (ip), vehicle: saline with Tween-80",1 of 6
same,survivor count,"T/C endpoint: mean survival time, dose: 200.0 mg/kg/injection, schedule: Q01DX001 (ip), vehicle: saline with Tween-80",0 of 6
same,survivor count,"T/C endpoint: mean survival time, dose: 400.0 mg/kg/injection, schedule: Q01DX001 (ip), vehicle: saline with Tween-80",0 of 6
O=P(O)(O)CP(=O)(O)O.[NH-]CC[NH-].[NH-]CC[NH-].[Pd+2].[Pd+2],survivor count,"T/C endpoint: mean survival time, dose: 200.0 mg/kg/injection, schedule: Q04DX003 (ip), vehicle: distilled water + Tween-80",0 of 6
CN(C)CCC(=O)/C=C\c1ccccc1,survivor count,"T/C endpoint: mean survival time, dose: 200.0 mg/kg/injection, schedule: Q04DX003 (ip), vehicle: saline",0 of 6
same,survivor count,[3],0 of 6
CN(C)c1ccc2c(Nc3ccc(NS(C)(=O)=O)cc3)c3ccc(N(C)C)cc3nc2c1,T/C,"T/C endpoint: median survival time, dose: 25.0 mg/kg/injection, schedule: Q01DX009 (ip), vehicle: Klucel (hydroxypropylcellulose) (HPC)",131 and 138 % of control
same,T/C,"T/C endpoint: median survival time, dose: 50.0 mg/kg/injection, schedule: Q01DX009 (ip), vehicle: Klucel (hydroxypropylcellulose) (HPC)",135 % of control
CC(C)NC(=O)c1ccc(N=NN(C)C)cc1,T/C,"T/C endpoint: mean survival time, dose: 25.0 mg/kg/injection, schedule: Q01DX009 (ip), vehicle: other",128 % of control
same,survivor count,"T/C endpoint: mean survival time, dose: 100.0 mg/kg/injection, schedule: Q01DX009 (ip), vehicle: DMSO",6 of 6
same,T/C,[4],132 % of control [4 of 6 alive]
same,survivor count,[4],3 of 6
same,survivor count,"T/C endpoint: mean survival time, dose: 200.0 mg/kg/injection, schedule: Q01DX009 (ip), vehicle: DMSO",4 of 6
same,survivor count,"T/C endpoint: mean survival time, dose: 200.0 mg/kg/injection, schedule: Q01DX009 (ip), vehicle: other","1 of 6, 2 of 6, 3 of 6"
same,survivor count,"T/C endpoint: mean survival time, dose: 400.0 mg/kg/injection, schedule: Q01DX009 (ip), vehicle: DMSO",0 of 6
same,survivor count,[2],2 of 6

# Source: PubChem BioAssay AID256 (DTP/NCI, 2004)
